The supplement of paper PMC8728848
This is one part of the list.

Columns and labels:
Test in all cases: glycan array binding signal (z-score within array); higher = stronger binding
Conditions in all cases: glycan notation: IUPAC condensed, linker removed
[1] = biological target: Neu5Ac(a2-6)GlcNAc(b1-4)GlcNAc(b1-4)GlcNAc
Method in brief: (§1)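 Columns mapping to the same glycan were averaged after glycan names were converted to IUPAC-condensed notation. The data come from 3228 arrays in the Consortium for Functional Glycomics database, limited to those with an available protein sequence. Binding is reported as a within-array Z-score averaged across arrays of one protein sequence and across linkers.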

Neu5Ac(a2-8)Neu5Ac = biological target: Neu5Ac(a2-8)Neu5Ac
Method in brief: as §1

[2] = biological target: Neu5Ac(a2-8)Neu5Ac(a2-3)Gal(b1-3)GalNAc(b1-4)[Neu5Ac(a2-3)]Gal(b1-4)Glc
Method in brief: as §1

[3] = biological target: Neu5Ac(a2-8)Neu5Ac(a2-3)Gal(b1-3)GalNAc(b1-4)[Neu5Ac(a2-8)Neu5Ac(a2-3)]Gal(b1-4)Glc
Method in brief: as §1

[4] = biological target: Neu5Ac(a2-8)Neu5Ac(a2-3)Gal(b1-4)Glc
Method in brief: as §1

[5] = biological target: Neu5Ac(a2-8)Neu5Ac(a2-3)Gal(b1-4)GlcNAc
Method in brief: as §1

[6] = biological target: Neu5Ac(a2-8)Neu5Ac(a2-3)[Gal(b1-3)GalNAc(b1-4)]Gal(b1-4)Glc
Method in brief: as §1

[7] = biological target: Neu5Ac(a2-8)Neu5Ac(a2-3)[GalNAc(b1-4)]Gal(b1-4)Glc
Method in brief: as §1

[8] = biological target: Neu5Ac(a2-8)Neu5Ac(a2-8)Neu5Ac
Method in brief: as §1

[9] = biological target: Neu5Ac(a2-8)Neu5Ac(a2-8)Neu5Ac(a2-3)Gal(b1-4)Glc
Method in brief: as §1

[10] = biological target: Neu5Ac(a2-8)Neu5Ac(a2-8)Neu5Ac(a2-3)[Gal(b1-3)GalNAc(b1-4)]Gal(b1-4)Glc
Method in brief: as §1

[11] = biological target: Neu5Ac(a2-8)Neu5Ac(a2-8)Neu5Ac(a2-3)[GalNAc(b1-4)]Gal(b1-4)Glc
Method in brief: as §1

[12] = biological target: Neu5Ac(a2-8)Neu5Ac(a2-8)Neu5Ac(a2-8)Neu5Ac(a2-3)[GalNAc(b1-4)]Gal(b1-4)Glc
Method in brief: as §1

[13] = biological target: Neu5Ac(a2-8)Neu5Gc(a2-3)Gal(b1-4)GlcNAc
Method in brief: as §1

[14] = biological target: Neu5Ac(b2-6)Gal(b1-4)GlcNAc
Method in brief: as §1

Neu5Ac(b2-6)GalNAc = biological target: Neu5Ac(b2-6)GalNAc
Method in brief: as §1

[15] = biological target: Neu5Ac9Ac(a2-3)Gal(b1-3)GlcNAc
Method in brief: as §1

[16] = biological target: Neu5Ac9Ac(a2-3)Gal(b1-4)GlcNAc
Method in brief: as §1

[17] = biological target: Neu5Ac9Ac(a2-6)Gal(b1-4)GlcNAc
Method in brief: as §1

[18] = biological target: Neu5Gc(a2-3)Gal(b1-3)GlcNAc
Method in brief: as §1

[19] = biological target: Neu5Gc(a2-3)Gal(b1-3)[Fuc(a1-4)]GlcNAc
Method in brief: as §1

Neu5Gc(a2-3)Gal(b1-4)Glc = biological target: Neu5Gc(a2-3)Gal(b1-4)Glc
Method in brief: as §1

[20] = biological target: Neu5Gc(a2-3)Gal(b1-4)GlcNAc
Method in brief: as §1

[21] = biological target: Neu5Gc(a2-3)Gal(b1-4)GlcNAc(b1-3)Gal(b1-4)GlcNAc(b1-2)Man(a1-3)[Neu5Gc(a2-3)Gal(b1-4)GlcNAc(b1-3)Gal(b1-4)GlcNAc(b1-2)Man(a1-6)]Man(b1-4)GlcNAc(b1-4)GlcNAc
Method in brief: as §1

[22] = biological target: Neu5Gc(a2-3)Gal(b1-4)[Fuc(a1-3)]GlcNAc
Method in brief: as §1

[23] = biological target: Neu5Gc(a2-6)Gal(b1-4)GlcNAc
Method in brief: as §1

Neu5Gc(a2-6)GalNAc = biological target: Neu5Gc(a2-6)GalNAc
Method in brief: as §1

[24] = biological target: Neu5Gc(a2-8)Neu5Ac(a2-3)Gal(b1-4)GlcNAc
Method in brief: as §1

[25] = biological target: Neu5Gc(a2-8)Neu5Gc(a2-3)Gal(b1-4)GlcNAc
Method in brief: as §1

[26] = biological target: Neu5Gc(a2-8)Neu5Gc(a2-3)Gal(b1-4)GlcNAc(b1-3)Gal(b1-4)GlcNAc
Method in brief: as §1

[27] = biological target: Neu5Gc(a2-8)Neu5Gc(a2-6)Gal(b1-4)GlcNAc
Method in brief: as §1

[28] = biological target: Neu5Gc(b2-6)Gal(b1-4)GlcNAc
Method in brief: as §1

B1: Aap arpt (Staphylococcus epidermidis) (protein)
chain: NNEAPQMSSTLQAEEGSNAEAPQSEPTKAEEGGNAEAAQSEPTKAEEGGNAEAPQSEPTKAEEGGNAEAAQSEPTKTEEGSNVKAAQSEPTKAEEGSNAEAPQSEPTKTEEGSNAKAAQSEPTKAEEGGNAEAAQSEPTKTEEGSNAEAPQSEPTKAEEGGYAEAPQSEPTKTEEGGNAEAPNVPTIKA
- glycan array binding signal (z-score) [1]: -0.144
- glycan array binding signal (z-score) (Neu5Ac(a2-8)Neu5Ac): 0.346
- glycan array binding signal (z-score) [2]: -1.08
- glycan array binding signal (z-score) [3]: -0.105
- glycan array binding signal (z-score) [4]: 1.97
- glycan array binding signal (z-score) [5]: -0.817
- glycan array binding signal (z-score) [6]: 0.455
- glycan array binding signal (z-score) [7]: -0.974
- glycan array binding signal (z-score) [8]: 0.137
- glycan array binding signal (z-score) [9]: 0.417
- glycan array binding signal (z-score) [10]: 0.163
- glycan array binding signal (z-score) [11]: 0.543
- glycan array binding signal (z-score) [12]: 0.92
- glycan array binding signal (z-score) [13]: -0.716
- glycan array binding signal (z-score) [14]: -1.06
- glycan array binding signal (z-score) (Neu5Ac(b2-6)GalNAc): -0.704
- glycan array binding signal (z-score) [15]: -0.136
- glycan array binding signal (z-score) [16]: 0.07
- glycan array binding signal (z-score) [17]: -0.308
- glycan array binding signal (z-score) [18]: -0.085
- glycan array binding signal (z-score) [19]: -0.921
- glycan array binding signal (z-score) (Neu5Gc(a2-3)Gal(b1-4)Glc): 1.13
- glycan array binding signal (z-score) [20]: 0.041
- glycan array binding signal (z-score) [21]: -1.29
- glycan array binding signal (z-score) [22]: 0.408
- glycan array binding signal (z-score) [23]: 0.146
- glycan array binding signal (z-score) (Neu5Gc(a2-6)GalNAc): 0.687
- glycan array binding signal (z-score) [24]: -0.497
- glycan array binding signal (z-score) [25]: -0.599
- glycan array binding signal (z-score) [26]: -0.491
- glycan array binding signal (z-score) [27]: -1.44
- glycan array binding signal (z-score) [28]: -1.08
